The values that follow come from PubChem BioAssay AID2685 (National Center for Advancing Translational Sciences (NCATS), 2010).

The list shows a part of the results. Shown are side measurements of this screen, not its main read-out; they come without a call. The list favours compounds with an active or inconclusive main result. Potencies come from curve fits of mixed quality, noted in brackets.

A short description of the experiment: qHTS Assay for Lipid Storage Modulators in Drosophila S3 Cells.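 As to cell number change: cells counted by Cell Tracker Red CMTPX staining in the red channel.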 Particulars: BODIPY lipid droplet fluorescence, 18-24 h; for cell number change: measured here: cell count max response, cells fed with added oleic acid. A digest of the protocol: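 Drosophila S3 cells got compounds at several concentrations plus oleic acid (400 uM solution). Laser-scanning cytometry with 488 nm excitation read lipid droplets at 500-530 nm and cells at 575-640 nm. Percent activity was relative to 20 uM Triacsin C.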

Where [1] appears, read: measured here: cell number channel AC50, cells fed with added oleic acid.
Setting [2] is: measured here: lipid fluorescence (Fed channel) AC50, cells fed with added oleic acid.

Regarding `S=c1[nH]nc(-c2ccccc2)n1/N=C/c1cccc(Cl)c1`, the cell number change is -32.2%. In addition, under setting [1], the AC50 (usually the concentration at which the activity in the assay is half-maximal) is 25.9 µM [falling, single point]. Besides, the AC50 under setting [2] is 29.1 µM [falling, single point].

Take `Cc1cc(C)nc(NS(=O)(=O)c2ccc(NC(=O)c3ccco3)cc2)n1`: the cell number change worked out at 37.3%. Further, the half-maximal activity concentration (AC50) under setting [1] was 10.3 µM [rising, single point]. Moreover, the concentration at half-maximal activity (AC50) under setting [2] was 29.1 µM [rising, single point].

Take `O=C(N=C1SC2CS(=O)(=O)CC2N1Cc1ccccc1Cl)C1CCCO1` (configuration not stated): the cell number change is -24.4%. The half-maximal activity concentration (AC50) under setting [1] was 0.00411 µM [falling, full curve, poor fit]. The half-maximal activity concentration (AC50) under setting [2] was 0.13 µM [falling, partial curve, poor fit].

With `COc1ccc2[nH]cc(C(=O)CN3CCCC(C)(C)C3)c2c1`, the cell number change came out at 45.9%. The concentration at half-maximal activity (AC50) under setting [1] is 23.1 µM [rising, single point].

Regarding `Cc1ccc(Cn2c(CN(C)Cc3ccccc3)nc3c2c(=O)n(C)c(=O)n3C)cc1`, the cell number change is -4.28%. The half-maximal activity concentration (AC50) under setting [2] is 4.11 µM [rising, partial curve, poor fit].

For `O=C(NCCS(=O)(=O)N1CCC2(CC1)OCCO2)c1ccc(F)cc1`, the cell number change was -7.03%. The AC50 under setting [2] is 2.06 µM [rising, partial curve].

For the compound `O=C(Cc1cccs1)NCc1ccc2c(c1)OCO2`, the cell number change was -7.29%.

With `COC(=O)/C(=C1\Oc2ccc(C(C)(C)C)cc2S1)C(F)(F)F`, the cell number change is -4.79%. The concentration at half-maximal activity (AC50) under setting [2] was 2.06 µM [rising, partial curve, poor fit].

Regarding `Cc1cc(NS(=O)(=O)c2ccc(NC(=O)C(c3ccccc3)c3ccccc3)cc2)no1`, the cell number change was found to be 5.26%.

Take `COc1ccc(-c2cc(C(=O)N3CCCCCC3)no2)cc1`: the cell number change is -0.87%. Also, the AC50 under setting [2] was 0.58 µM [falling, single point].

For the compound `Cc1ccc(NC(=O)Nc2ccc3c(c2)CCC3)cc1C`, the cell number change is -8.09%. Also, the half-maximal activity concentration (AC50) under setting [2] was 0.116 µM [rising, full curve, poor fit].

As for `CCCCNC(=O)c1nn(-c2ccccc2OC)c(=O)c2ccccc12`, the cell number change was determined as 4.39%. In addition, the AC50 under setting [2] was 2.59 µM [rising, single point].

Turning to `COc1ccc(-c2cn[nH]c2-c2ccc(OCc3ccccc3F)cc2O)cc1OC`, the cell number change was -39.2%. Further, the AC50 under setting [1] is 14.6 µM [falling, single point]. Moreover, the AC50 under setting [2] was 29.1 µM [falling, single point].

`O=S(=O)(NCc1ccc(Cl)cc1)NCc1ccccc1F`: the cell number change turned out to be 5.7%. The half-maximal activity concentration (AC50) under setting [1] is 0.116 µM [falling, full curve, poor fit]. The AC50 under setting [2] was 0.103 µM [falling, full curve, poor fit].

Consider `COC(=O)C1=C(O)CSC1=Nc1ccccc1`, for which the cell number change was -1.99%.

In the case of `O=C(NCc1ccccc1Cl)C1CCC(CNc2nc(=S)[nH]c3ccccc23)CC1` (configuration not stated), the cell number change was determined as 22.9%.

As for `Cc1nnc(SCC(=O)Nc2cc(C(F)(F)F)ccc2N2CCOCC2)o1`, the cell number change stood at 63.1%. Besides, the half-maximal activity concentration (AC50) under setting [1] was 5.17 µM [rising, partial curve]. Under setting [2], the AC50 was 1.84 µM [rising, partial curve].

In the case of `COc1ccc2cc(C(=O)N3CCN(C)CC3)[nH]c2c1`, the cell number change turned out to be 43%. The half-maximal activity concentration (AC50) under setting [1] is 4.11 µM [rising, full curve, poor fit]. In addition, the AC50 under setting [2] is 29.1 µM [rising, single point].

As for `CCCN1CCCc2cc(CN(CCCN3CCOCC3)C(=O)Nc3ccc(OCC)cc3)ccc21`, the cell number change is 8.12%.

For the compound `COc1ccc(N(CC(=O)N/N=C/c2ccc(F)cc2)S(=O)(=O)c2ccccc2)cc1`, the cell number change worked out at 52.3%. Moreover, the AC50 under setting [1] was 9.2 µM [rising, partial curve].

For the compound `CCN(Cc1nc2ccccc2c(=O)[nH]1)Cc1nc2cc(OC)c(OC)cc2c(=O)[nH]1`, the concentration at half-maximal activity (AC50) reads like this: under setting [1], 4.11 µM [rising, partial curve, poor fit]; under setting [2], 1.03 µM [rising, partial curve, poor fit].

On to `CCN1CCCC1CN(Cc1cc2cc(C)cc(C)c2[nH]c1=O)C(=O)Nc1ccccc1OC` (configuration not stated), for which the cell number change was 91.8%. Besides, the AC50 under setting [1] is 7.31 µM [rising, partial curve, poor fit]. Besides, under setting [2], the AC50 was 29.1 µM [rising, partial curve, poor fit].

For `O=C(COC(=O)CCC1CCCC1)Nc1ccccc1OC(F)F`, the cell number change is -28%. Besides, the AC50 under setting [1] is 0.92 µM [falling, full curve, poor fit]. Besides, the concentration at half-maximal activity (AC50) under setting [2] is 23.1 µM [falling, single point].

Turning to `Cc1ccc2c(CN3CCN(S(=O)(=O)/C=C/c4ccccc4)CC3)cc(=O)oc2c1`, the cell number change was found to be 19.7%. In addition, under setting [2], the AC50 is 4.61 µM [rising, full curve, poor fit].

On to `CC(=O)c1cc2c(=O)c3cc(C)ccc3oc2nc1C`, for which the half-maximal activity concentration (AC50) by setting is: under setting [1], 0.651 µM [rising, single point]; under setting [2], 0.461 µM [rising, partial curve, poor fit].

With `COc1ccc(CCNC(=O)Cn2cnc3c(cnn3-c3ccccc3Cl)c2=O)cc1OC`, the cell number change was -7.65%. The half-maximal activity concentration (AC50) under setting [2] is 0.731 µM [rising, full curve, poor fit].

In the case of `N#Cc1c(NC(=O)c2ccccc2)sc2c1CCC2`, the cell number change is -0.245%.

Regarding `Cc1c(C(=O)NC2CCCc3ccccc32)oc2ccc(S(=O)(=O)N3CCCC3)cc12` (configuration not stated), the cell number change stood at 9.14%. Besides, under setting [2], the AC50 is 0.116 µM [falling, full curve, poor fit].

For the compound `Clc1ccc(OCCn2c(-c3ccco3)nc3ccccc32)cc1`, the cell number change came to 41.9%. In addition, the concentration at half-maximal activity (AC50) under setting [1] is 20.6 µM [rising, single point]. The half-maximal activity concentration (AC50) under setting [2] is 29.1 µM [rising, single point].

Regarding `CC(C)C(=O)NC(=S)N1CCc2ccccc21`, the cell number change came out at 17.9%. The concentration at half-maximal activity (AC50) under setting [1] is 2.06 µM [rising, partial curve, poor fit]. Further, the AC50 under setting [2] was 1.84 µM [rising, full curve, poor fit].

For the compound `COc1ccccc1/C=N/Nc1cc(C)nc2ccc(C)cc12`, the cell number change was found to be 19.4%. Further, the AC50 under setting [2] is 1.16 µM [falling, full curve].

Take `O=C(CCNC(=O)c1ccc(Br)cc1)Nc1ccccc1N1CCCCC1`: the cell number change was 12.4%. Also, the AC50 under setting [1] is 2.06 µM [rising, partial curve]. In addition, under setting [2], the AC50 was 0.517 µM [rising, full curve, poor fit].

Take `CC(=O)c1cccc(N(CC(=O)NC2CCCCC2)C(=O)CCC(=O)Nc2nc(C)cs2)c1`: the cell number change was -6.41%.

On to `O=C(CN(Cc1ccccc1Cl)C(=O)Cn1nnc(-c2cccs2)n1)NCC1CCCO1` (configuration not stated), for which the cell number change was 42.8%. Moreover, the AC50 under setting [1] is 20.6 µM [rising, single point].

With `COc1ccc(-c2nnc3sc(C4CCCCC4)nn23)cc1OC`, the cell number change came to 30.1%. The AC50 under setting [1] was 0.517 µM [rising, full curve]. Under setting [2], the AC50 is 2.59 µM [rising, partial curve].

On to `CC(C)(C)c1ccc(CCC(CC(=O)O)CC(=O)O)cc1`, for which the cell number change was -11.7%. For the same compound, the half-maximal activity concentration (AC50) under setting [1] was 6.51 µM [falling, single point]. Besides, the AC50 under setting [2] was 6.51 µM [falling, partial curve, poor fit].

For the compound `Cc1nc2ccc(F)cc2cc1C(=O)Nc1cccc(Cl)c1C`, the cell number change is -0.58%.

`CC(C)c1ccc(Nc2nnc(SC3CCOC3=O)s2)cc1` (configuration not stated): the cell number change came out at 10.8%. For the same compound, the half-maximal activity concentration (AC50) under setting [2] was 14.6 µM [rising, partial curve].

Regarding `CC(C)Cc1c(O)nc(SCC(=O)N2CCCCCC2)[nH]c1=O`, the cell number change was -19.7%.

For `CN(C(=O)c1ccc(NC(=O)Cc2cccc(NC(=O)C3CCCN(C(=O)C4CC4)C3)c2)cc1)C1CCCC1` (configuration not stated), the cell number change was -6.5%.

As to `N#Cc1cnc2sc3ccccc3n2c1=N`, the cell number change was 12.9%. Also, under setting [2], the concentration at half-maximal activity (AC50) was 0.146 µM [rising, full curve, poor fit].

`CN1CCOC(=O)/C1=N/Nc1cc(Cl)ccc1Cl`: the cell number change was determined as 25.1%. The AC50 under setting [2] was 29.1 µM [rising, single point].

Regarding `COC(=O)c1ccc(CSc2nc3c(c(=O)n2-c2ccccc2)SCC3)o1`, the cell number change was -7.99%.

For `Cc1ccc(S(=O)(=O)N(C)c2ccc(C(=O)N3CCN(Cc4ccc5c(c4)OCO5)CC3)cc2)cc1`, the concentration at half-maximal activity (AC50) under setting [1] is 0.731 µM [rising, single point].

For the compound `O=C(c1cccs1)N1CCN(c2nc3ccc([N+](=O)[O-])cc3s2)CC1`, the cell number change is 24.1%. Besides, under setting [2], the AC50 is 0.146 µM [rising, full curve].

For `COc1ccc(C(=O)c2coc3ccc(O)c(CN4CCCC4)c23)cc1`, the cell number change was -5.98%. Moreover, the AC50 under setting [2] is 25.9 µM [falling, single point].

With `C=CCNC(=O)CCCOc1cccc(C)c1`, the cell number change is -1.42%. Moreover, the AC50 under setting [2] was 2.31 µM [falling, full curve, poor fit].

On to `Cn1ccc(NC(=O)Nc2ccc(Cl)cc2)n1`, for which the cell number change was -41.7%. Further, the AC50 under setting [1] was 29.1 µM [falling, single point].

Regarding `O=c1cc(CNc2cc(Cl)ccc2Cl)nc2sccn12`, the cell number change was -12.8%. Further, under setting [2], the AC50 was 29.1 µM [falling, single point].

With `CCOC(=O)/C=C1\NC(=O)C(C)S1` (configuration not stated), the cell number change is -41.7%. Besides, the half-maximal activity concentration (AC50) under setting [1] is 29.1 µM [falling, single point]. For the same compound, the AC50 under setting [2] is 25.9 µM [falling, single point].

For the compound `CCN(CC)S(=O)(=O)c1cccc(C(=O)OCC(=O)C23CC4CC(CC(C4)C2)C3)c1`, the cell number change was -22.5%. In addition, the concentration at half-maximal activity (AC50) under setting [2] is 1.64 µM [falling, partial curve].

In the case of `O=C(CCN1CCN(CCO)CC1)Nc1ccc(F)c(F)c1`, under setting [2], the half-maximal activity concentration (AC50) is 8.2 µM [falling, partial curve].

As to `COC(=O)C1=C(C(=O)OC)SC2(S1)C(C(=O)OC)=C(C(=O)OC)SC1=C2c2cc(C)ccc2NC1(C)C`, the concentration at half-maximal activity (AC50) under setting [1] is 0.411 µM [rising, full curve].

`Cc1ccc(S(=O)(=O)Cc2ccc(C(=O)NCc3cccs3)o2)cc1`: the cell number change was found to be 105%. Also, under setting [1], the concentration at half-maximal activity (AC50) is 16.4 µM [rising, partial curve]. Moreover, under setting [2], the AC50 was 13 µM [rising, partial curve].

On to `COc1ccc(C(=O)N2CCC(C(=O)Nc3ccccc3OC)CC2)cc1`, for which the AC50 under setting [2] is 0.58 µM [falling, single point].

Turning to `Cc1onc(-c2c(Cl)cccc2Cl)c1C(=O)NCC1CCCO1` (configuration not stated), the cell number change was -233%. Also, the AC50 under setting [1] is 29.1 µM [falling, partial curve]. Also, the half-maximal activity concentration (AC50) under setting [2] was 23.1 µM [falling, partial curve].

For `Cc1cccc(-n2c(SCc3ccc([N+](=O)[O-])cc3)nnc2-c2c[nH]c3ccccc23)c1`, the cell number change turned out to be 22.9%. The AC50 under setting [1] is 0.731 µM [rising, partial curve, poor fit]. For the same compound, under setting [2], the concentration at half-maximal activity (AC50) is 13 µM [rising, partial curve].
